Here are results for two molecules from patent US20230174641A1.

Sequences of proteins named here, by UniProt entry; tags and fusion partners are left off.
UniProt Q01718: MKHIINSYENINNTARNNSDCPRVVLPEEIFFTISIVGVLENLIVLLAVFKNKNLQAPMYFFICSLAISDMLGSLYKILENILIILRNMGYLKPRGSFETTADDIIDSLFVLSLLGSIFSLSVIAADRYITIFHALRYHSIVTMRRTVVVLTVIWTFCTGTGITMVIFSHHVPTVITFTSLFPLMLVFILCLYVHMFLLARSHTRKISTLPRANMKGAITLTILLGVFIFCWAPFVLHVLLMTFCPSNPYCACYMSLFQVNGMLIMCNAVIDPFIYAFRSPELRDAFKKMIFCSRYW

One assay concerns the target T1, 9A.
T1 sequence (peptide): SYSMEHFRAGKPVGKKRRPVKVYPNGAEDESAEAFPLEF
Briefly: condition: 100 nM (0.45 µg/mL, from [p-2087]; not printed on the sheet); SPR (ProteOn XPR36), Ab9 amine-coupled on GLC chip, mutant peptide injected for 2 min.

The target in assay [1] is melanocortin-2 receptor (MC2R) (UniProt Q01718). In words: 125I-ACTH (1-39) tracer on MC2R-transfected cells, Cytostar-T scintillating microplates, counts as % of binding without antibody.

No constants are given. Whether binding was seen depends on the method and setting. Some entries that bind do so weakly or less than the wild type.

B1: Ab9 (antibody, human IgG1, kappa, N297A, V domains shown)
VH: QSVEESGGRLVTPGTPLTLTCTVSGFSLNSYAMSWVRQAPGEGLEWIGIISDSGRTYYASWAKGRFTISKTSTTVDLKITSPTTEDTATYFCAREPEYGYDDYGDWVSDLWGPGTLVTVSS
VL: DVVMTQTPASVEAAVGGTVTIKCQASQSISSYLSWYQQKPGQPPKLLIYRASTLASGVPSRFKGSGSGTQFTLTISDLECADAATYYCQSYYYSSSITYRNAFGGGTEVVVKR
For B1, the binding result in the assay with 9A was “no binding”.

Take SYSMEHFRWGKPVGKKRRPVKVYPNGAEDESAEAFPLEF (125I on Tyr 23) [ACTH (1-39) 23 TYR, [125I]]: the binding entry in assay [1] was “binds”.
